PubChem BioAssay AID1259327 – Drosophila RNAi Screening Center – 2017
Aim: 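Data from controls in screens of zinc and manganese toxicity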. Cell system: Drosophila S2R+ cells. Reagent: long dsRNA against Drosophila genes. Duration: 5 days (water added on day 4, read one day later). Challenge: water added as vehicle, no metal, one day before read-out. Detection: 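Luciferase ATP signal per well, normalised to plate mean, duplicate average converted to z-score across plates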. Direction: ATP z-score: higher = more total ATP than typical wells; ATP luminescence: higher = more total ATP. Hit rule: 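a hit is any knock-down whose absolute ATP z-score is greater than 1.5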. Calls: active = hit: ATP up or down; inactive = no clear ATP change.
This is one part, drawn at random, of about 3,100 reagents. 378 of them (12%) count as active. 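Hits include both directions; z-score sign shows ATP rise or fall; raw luminescence values are not plate-normalised.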 Reagent sequences are not shown. Not stated in the record: the amount of reagent.

{"gene":"COX7A","DRSC id":"DRSC16514","ATP z-score, duplicate mean":-1.81,"ATP luminescence, replicate 1 (RLU)":2.52e5,"ATP luminescence, replicate 2 (RLU)":4.79e5,"Call":"active"}
{"gene":"CG14767","DRSC id":"DRSC06500","ATP z-score, duplicate mean":0.487,"ATP luminescence, replicate 1 (RLU)":8.10e5,"ATP luminescence, replicate 2 (RLU)":7.55e5,"Call":"inactive"}
{"gene":"CG14767","DRSC id":"DRSC28418","ATP z-score, duplicate mean":-0.662,"ATP luminescence, replicate 1 (RLU)":8.25e5,"ATP luminescence, replicate 2 (RLU)":6.68e5,"Call":"inactive"}
{"gene":"alka","DRSC id":"DRSC06136","ATP z-score, duplicate mean":-0.555,"ATP luminescence, replicate 1 (RLU)":6.09e5,"ATP luminescence, replicate 2 (RLU)":5.30e5,"Call":"inactive"}
{"gene":"Afg3l2","DRSC id":"DRSC10657","ATP z-score, duplicate mean":0.0188,"ATP luminescence, replicate 1 (RLU)":7.65e5,"ATP luminescence, replicate 2 (RLU)":7.00e5,"Call":"inactive"}
{"gene":"Afg3l2","DRSC id":"DRSC29981","ATP z-score, duplicate mean":0.193,"ATP luminescence, replicate 1 (RLU)":5.18e5,"ATP luminescence, replicate 2 (RLU)":6.75e5,"Call":"inactive"}
{"gene":"CG13893","DRSC id":"DRSC08363","ATP z-score, duplicate mean":0.429,"ATP luminescence, replicate 1 (RLU)":5.72e5,"ATP luminescence, replicate 2 (RLU)":7.45e5,"Call":"inactive"}
{"gene":"CG13893","DRSC id":"DRSC39792","ATP z-score, duplicate mean":2.06,"ATP luminescence, replicate 1 (RLU)":5.81e5,"ATP luminescence, replicate 2 (RLU)":6.68e5,"Call":"active"}

Continued (2 carried over from the part before).
{"gene":"CG13893","DRSC id":"DRSC08363","ATP z-score, duplicate mean":0.429,"ATP luminescence, replicate 1 (RLU)":5.72e5,"ATP luminescence, replicate 2 (RLU)":7.45e5,"Call":"inactive"}
{"gene":"CG13893","DRSC id":"DRSC39792","ATP z-score, duplicate mean":2.06,"ATP luminescence, replicate 1 (RLU)":5.81e5,"ATP luminescence, replicate 2 (RLU)":6.68e5,"Call":"active"}
{"gene":"Ir68a","DRSC id":"DRSC10599","ATP z-score, duplicate mean":0.646,"ATP luminescence, replicate 1 (RLU)":1.16e6,"ATP luminescence, replicate 2 (RLU)":8.07e5,"Call":"inactive"}
{"gene":"TM9SF2","DRSC id":"DRSC03197","ATP z-score, duplicate mean":-1.53,"ATP luminescence, replicate 1 (RLU)":3.88e5,"ATP luminescence, replicate 2 (RLU)":3.55e5,"Call":"active"}
{"gene":"TM9SF2","DRSC id":"DRSC39485","ATP z-score, duplicate mean":-1.17,"ATP luminescence, replicate 1 (RLU)":4.03e5,"ATP luminescence, replicate 2 (RLU)":3.49e5,"Call":"inactive"}
{"gene":"MstProx","DRSC id":"DRSC12458","ATP z-score, duplicate mean":-0.349,"ATP luminescence, replicate 1 (RLU)":5.13e5,"ATP luminescence, replicate 2 (RLU)":9.21e5,"Call":"inactive"}
{"gene":"MstProx","DRSC id":"DRSC12601","ATP z-score, duplicate mean":-0.29,"ATP luminescence, replicate 1 (RLU)":7.06e5,"ATP luminescence, replicate 2 (RLU)":7.17e5,"Call":"inactive"}
